Measured values as given in US5480887A, “Protease inhibitors” (Eli Lilly and Company, priority 1994, dated 1996).

Columns and labels:
HIV-1 Protease = target: T1, HIV-1 Protease (Human immunodeficiency virus type 1 group M subtype B, UniProt P04585); experiment: biochemical
T1 construct: HIV-1 Protease
Experimental: These compounds may be assayed using two assays: (1) an enzyme inhibition assay, and (2) an antiviral cell culture assay.
This assay is described in detail in published European Patent Application (EPA) 0 526 009, herein incorporated by reference. Using this assay, a number of the compounds, prepared above, were assayed for HIV protease inhibitory activity.
The assay is unable to test compounds at less than a concentration of 0.16 ng/mL.

HIV = experiment: microbe, parasite or virus in culture; type: cell-based; details: Human immunodeficiency virus 1, read-out: Antiviral Activity IC90
Experimental: In addition, the compounds described in the present application may be tested using an antiviral cell culture assay as described in Weislow, O.S., J. of National Cancer Institute, 81(8), pages 577-586 (Apr. 19, 1989) herein incorporated by reference.
This assay compares the viability of HIV-infected cells in a cell culture medium relative to the viability of such cells in the presence of a test compound. The concentration of test compound necessary to inhibit 90% of the virus is then measured using the viability of the cells as an indicator of viral inhibition. This assay is carried out using cell lines that are sensitive to the lyric effects of HIV infection.
Specifically, this assay utilizes the metabolic reduction of a tetrazolium reagent, 2,3-bis[2-methoxy-4-nitro-5-sulfophenyl]-5-[(phenylamino)carbonyl]-2H-tetrazolium hydroxide (XTT). In the presence of a viable cell, the tetrazolium reagent, XTT, is reduced to provide XTT formazan which may be quantified using colorimetric determination (at 450 nm). The intensity of the chromogenic signal is directly proportional to the concentration of the XTT formazan, thus providing a measure of the quantity of viable cells.

**Q.** Which IC50 (HIV-1 Protease) does the source give for `CC(=O)N[C@H](CS(=O)(=O)c1ccc(F)cc1)C(=O)N[C@@H](Cc1ccccc1)[C@H](O)CN1C[C@H]2CCS[C@H]2C[C@H]1C(=O)NC(C)(C)C` [Example 22, N-t-Butyl-octahydro-5[2R-hydroxy-3S-phenylmethyl-4-aza-5-oxo-6S-N(acetyl)amino-7-p-fluorophenylsulfonyl-heptyl]-(3aR,7aS)-thieno[3,2-c]pyridine-(6S)-carboxamide] here?
**A.** The IC50 was 1.31 nM.

**Q.** And the IC90 (HIV)?
**A.** Its IC90 is 296 nM.
